Measurements reported in PubChem BioAssay AID504444 (National Center for Advancing Translational Sciences (NCATS), 2011).
Screen size: about 360,000 compounds; about 7,500 (2.1%) were called active. This list was built around the results that the source calls inconclusive (neither active nor inactive); the mix of calls is not that of the screen. Calls follow the shape of the dose curve; as a rule, active = well fitted inhibition curve with a large enough effect; inconclusive = small, poorly fitted or top-dose-only effect, or effect the other way; inactive = flat fitted curve, though single readings scatter. Potencies of inconclusive entries are doubtful fits and often do not repeat.

Assay: Nrf2 qHTS screen for inhibitors; also: nearly all actives have a fitted effect of over 60% in size
Conditions: A549 ARE-Fluc reporter, luciferase luminescence, 18-24 h; activity change, negative = inhibition: at 46 µM (top of the series)
In short: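 Nrf2 function is reported as luminescence of an ARE-controlled luciferase in A549 cells. Compounds were tested at several concentrations, and a CellTiter-Fluor read on the same wells flagged cytotoxicity.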
% is scaled to controls: 0 for no effect and ±100 for the full control effect; potency is read from the fitted curve at half-maximal effect.

Q: For O=C(c1cc(COc2ccc(F)cc2F)on1)N1C[C@H]2CC[C@H]1C2, which Potency is on record?
A: Its Potency is inconclusive: 29.1 µM [activator, single point].

Q: Which Potency does the source give for Nc1ccc(Oc2ccc3c(c2)C(=O)N(CC2CCCO2)C3=O)cc1 (configuration not stated) here?
A: Its Potency is inconclusive: 11.6 µM [activator, single point].

Q: Which Potency does the source give for O=C(Nc1ccc(N2CCOCC2)cc1)c1cccc(S(=O)(=O)N2CCCCCC2)c1 here?
A: The Potency was inconclusive: 29.1 µM [falling, single point].

Q: For CCCOC(=O)c1c(-c2ccccc2)nc(CC)c(C(=O)SCC)c1CCC, which “activity change, negative = inhibition” value is on record?
A: Its value is inactive: -11.9%.

Q: With O=C(CC(O)(C(F)(F)F)C(F)(F)F)Nc1ccc(Cl)c(Cl)c1 as the molecule, how does the Potency read?
A: The Potency was active: 2.91 µM.

Q: Which Potency does the source give for COc1cc2c(cc1OC)C(C)N(C(=O)c1cc3ccccc3o1)CC2 (configuration not stated) here?
A: Its Potency is inconclusive: 20.6 µM [falling, single point].

Q: With CC(C)CN(C(=O)C1CCCCC1)C1CCS(=O)(=O)C1 (configuration not stated) as the molecule, how does the Potency read?
A: Its Potency is inconclusive: 2.06 µM [activator, partial curve, poor fit].

Q: For CC(=O)c1cccc(NC(=O)c2cc3sc(Cl)cc3n2C)c1, which Potency is on record?
A: Its Potency is inconclusive: 3.26 µM [activator, full curve].

Q: With Cc1nn(Cc2ccc(Cl)cc2)c(C)c1NC(=O)CSc1nc2c(c(C(F)(F)F)n1)CCc1ccccc1-2 as the molecule, how does the Potency read?
A: The Potency was active: 9.2 µM.

Q: Which Potency does the source give for O=C(c1ccc(Br)cc1)N1CCN(c2ncccn2)CC1 here?
A: Its Potency is inconclusive: 23.1 µM [falling, single point].

Q: With CCCCCCNC(=O)N1C/C=C\C(c2ccc(OC)cc2)N(Cc2ccc(F)cc2)C(=O)C1 (configuration not stated) as the molecule, how does the Potency read?
A: Its Potency is inconclusive: 6.51 µM [falling, single point].

Q: For Cc1cnc(C(=O)OCc2c(C)cc(C(C)(C)C)cc2C)cn1, which Potency is on record?
A: The Potency was inconclusive: 20.6 µM [activator, partial curve, poor fit].

Q: With Cc1ccc(-c2csc3ncnc(N4CCN(C(=O)c5ccccc5)CC4)c23)cc1 as the molecule, how does the Potency read?
A: The Potency was inconclusive: 29.1 µM [falling, single point].

Q: For C/C(=N/NS(=O)(=O)c1ccc(CC(C)C)cc1)c1ccncc1, which Potency is on record?
A: The Potency was inconclusive: 16.4 µM [falling, single point].

Q: With CCCCCCN(C(=O)CCCN1C(=O)NC(c2ccc([N+](=O)[O-])cc2)C(C(=O)OCc2ccccc2)=C1C)C(C)C(=O)NCCCC (configuration not stated) as the molecule, how does the Potency read?
A: Its Potency is inconclusive: 20.6 µM [falling, single point].

Q: For Cc1ccc(C(=O)Nc2ccc(CC(=O)O)cc2)o1, which Potency is on record?
A: The Potency was inconclusive: 3.66 µM [falling, full curve, poor fit].

Q: For COc1ccccc1NC(=O)Cc1csc(NC(=O)c2ccccc2)n1, which Potency is on record?
A: Its Potency is inconclusive: 25.9 µM [falling, partial curve, poor fit].
